For six molecules, T/C and survivor count results are on record in PubChem BioAssay AID222 (DTP/NCI, 2004).

In this experiment the test system is C57BL/6 mice, intracerebral ependymoblastoma, median survival T/C. Put plainly: NCI In Vivo Anticancer Drug Screen. Data for tumor model Ependymoblastoma (intracerebral) in C57BL/6 mice. Conditions: T/C endpoint: median survival time, higher T/C = longer survival. The method, then:
The antitumor activity of compounds was measured in mice bearing transplantable tumors. Survival or tumor size were measured and the results are expressed as the measurement made in the treated group (T) divided by the measurement made in the vehicle treated control group (C). The tumor model used in this assay is Ependymoblastoma (intracerebral) in C57BL/6 mice

[1] abbreviates: dose: 16.0 mg/kg/injection, schedule: Q01DX005 (ip), vehicle: Klucel (hydroxypropylcellulose) (HPC).
[2] abbreviates: dose: 64.0 mg/kg/injection, schedule: Q01DX005 (ip), vehicle: Klucel (hydroxypropylcellulose) (HPC).
The mark [3] stands for this setting: dose: 128.0 mg/kg/injection, schedule: Q01DX001 (ip), vehicle: saline.
Where [4] appears, read: dose: 128.0 mg/kg/injection, schedule: Q01DX001 (oral), vehicle: saline.
The mark [5] stands for this setting: dose: 256.0 mg/kg/injection, schedule: Q01DX001 (ip), vehicle: saline.
Where [6] appears, read: dose: 256.0 mg/kg/injection, schedule: Q01DX001 (oral), vehicle: saline.
Where [7] appears, read: dose: 512.0 mg/kg/injection, schedule: Q01DX001 (oral), vehicle: saline.

The list does not hold the whole screen: it is rich in T/C values a quarter to a half above the control, in often repeated tests (any T/C) and in doses without a T/C. Further doses and runs are listed elsewhere. T/C: endpoint of the treated group in % of that of the vehicle group. Some entries give survivors of the animals treated and no T/C: the source files T/C as zero there, which appears to mark a toxic dose or a test without result, not a measured value. Some doses without a T/C left all or most animals alive at the check, yet need not have been tolerated: the source hardly ever lists a survival T/C far under the control, and the zero likely stands for such cases as well. Counts of survivors are from the toxicity check (mostly the fifth day) where no day follows; animals may have died later. Schedule codes are those of the source, read here as Q, the interval in days (D) or hours (H), X, the number of doses. Some doses were run more than once; their values stand side by side, smallest first. Some schedule codes hold Z or #, which are not explained here. For survival time, the PubChem record calls one and a half times the control and up active, and a quarter to a half above the control has no call in these data; cut-offs in other NCI protocols can differ. Some T/C values are followed by the survivors on the day toxicity was checked, most often the fifth; without a count, all were alive then. Additions like (4×) give the number of equal values in this list.

Consider `Nc1nc([Se])c2ncn(C3OC(CO)C(O)C3O)c2n1` (stereo unspecified), for which the T/C (dose: 8.0 mg/kg/injection, schedule: Q01DX005 (ip), vehicle: Klucel (hydroxypropylcellulose) (HPC)) was 102, 105 (2×), 108, 109 % of control; the T/C (dose: 64.0 mg/kg/injection, schedule: Q01DX001 (ip), vehicle: saline) was 95 [9 of 10 alive], 100, 105 [6 of 7 alive], 106 [6 of 10 alive], 108 % of control; the T/C under setting [3] was 94 [5 of 10 alive], 99 [8 of 10 alive], 104 % of control [5 of 10 alive]; the T/C under setting [4] is 96, 98 [3 of 10 alive], 98 [6 of 10 alive], 106 % of control; the T/C under setting [5] was 95 % of control [3 of 10 alive]; the T/C under setting [6] is 90 [2 of 10 alive] and 104 % of control [7 of 10 alive]. For the same molecule, the T/C under setting [7] is 106 % of control [6 of 9 alive]. For the same molecule, the survivor count was 10 of 10 under setting [1]; 9 of 10 and 10 of 10 (dose: 32.0 mg/kg/injection, schedule: Q01DX005 (ip), vehicle: Klucel (hydroxypropylcellulose) (HPC)); 7 of 10 (dose: 32.0 mg/kg/injection, schedule: Q01DX005 (ip), vehicle: saline with Tween-80); 10 of 10 (dose: 32.0 mg/kg/injection, schedule: Q01DX005 (ip), vehicle: saline); 9 of 10 under setting [2]; 6 of 10 (dose: 64.0 mg/kg/injection, schedule: Q01DX005 (ip), vehicle: saline with Tween-80). Besides, the survivor count (dose: 64.0 mg/kg/injection, schedule: Q01DX005 (ip), vehicle: saline) is 9 of 10 and 10 of 10; the survivor count (dose: 111.4 mg/kg/injection, schedule: Q## X006 (ip), vehicle: saline) is listed as 7 of 10; the survivor count under setting [3] is recorded as 4 of 10; the survivor count under setting [4] is given as 8 of 10; the survivor count (dose: 128.0 mg/kg/injection, schedule: Q01DX005 (ip), vehicle: Klucel (hydroxypropylcellulose) (HPC)) is reported as 0 of 10; the survivor count (dose: 128.0 mg/kg/injection, schedule: Q01DX005 (ip), vehicle: saline) is reported as 0 of 10. Also, the survivor count by setting is: (dose: 128.0 mg/kg/injection, schedule: Q01DX005 (oral), vehicle: saline) 4 of 10; (dose: 128.0 mg/kg/injection, schedule: Q#A X002 (ip), vehicle: saline) 0 of 10; (dose: 222.7 mg/kg/injection, schedule: Q## X006 (ip), vehicle: saline) 3 of 10; under setting [5], 1 of 10, 2 of 10, 3 of 10; under setting [6], 3 of 10, 5 of 10, 7 of 10; (dose: 256.0 mg/kg/injection, schedule: Q01DX005 (oral), vehicle: saline) 0 of 10. Further, the survivor count is, setting by setting: (dose: 256.0 mg/kg/injection, schedule: Q#A X002 (ip), vehicle: saline) 0 of 10 and 0 of 9; (dose: 512.0 mg/kg/injection, schedule: Q01DX001 (ip), vehicle: saline) 0 of 10 and 1 of 10; under setting [7], 0 of 10, 1 of 10, 2 of 10; (dose: 512.0 mg/kg/injection, schedule: Q01DX005 (oral), vehicle: saline) 0 of 10; (dose: 1024.0 mg/kg/injection, schedule: Q01DX001 (oral), vehicle: saline) 0 of 10 and 3 of 9; (dose: 1024.0 mg/kg/injection, schedule: Q01DX005 (oral), vehicle: saline) 0 of 10.
As for `ClC(Cl)=C(Cl)Cl`, the survivor count runs as follows: (dose: 180.0 mg/kg/injection, schedule: Q01DX005 (ip), vehicle: saline with Tween-80) 0 of 10 and 2 of 10; (dose: 360.0 mg/kg/injection, schedule: Q01DX005 (ip), vehicle: saline with Tween-80) 0 of 10; (dose: 720.0 mg/kg/injection, schedule: Q01DX005 (ip), vehicle: saline with Tween-80) 0 of 10; (dose: 1444.0 mg/kg/injection, schedule: Q01DX005 (ip), vehicle: saline with Tween-80) 0 of 10.
`Cc1c[nH]c(=O)[nH]c1=O`: under setting [2], the survivor count is reported as 10 of 10.
As for `Nc1nc(=S)c2ncn(C3OC(CO)CC3O)c2[nH]1` (stereo unspecified), the survivor count reads like this: (dose: 20.0 mg/kg/injection, schedule: Q01DX005 (ip), vehicle: saline) 9 of 10; (dose: 40.0 mg/kg/injection, schedule: Q01DX005 (ip), vehicle: saline) 10 of 10.
As to `O=C(CCCN1CCC(O)(c2cccc(C(F)(F)F)c2)CC1)c1ccc(F)cc1`, the survivor count reads like this: (dose: 100.0 mg/kg/injection, schedule: Q04DX003 (ip), vehicle: Klucel (hydroxypropylcellulose) (HPC)) 1 of 10; (dose: 200.0 mg/kg/injection, schedule: Q04DX003 (ip), vehicle: Klucel (hydroxypropylcellulose) (HPC)) 0 of 10.
For `C[n+]1ccc(Nc2ccc(NC(=O)c3ccc(Nc4cc[n+](C)c5ccc(N)cc45)cc3)cc2)cc1`, under setting [1], the survivor count is 9 of 10.
